This note sets out measurements from PMC6038951.

No constants are given. Whether binding was seen depends on the method and setting. Tags and fused reporters may be left off the sequences shown.

This experiment concerns the target Mycobacterium tuberculosis methionyl-tRNA synthetase with a single N-terminal 6×His tag (Mycobacterium tuberculosis H37RV) (UniProt P9WFU5). In words: SEC; Superdex 200 300/10 GL column calibrated with protein standards (thyroglobulin, γ-globulin, ovalbumin, myoglobin, vitamin B12); mass from SEC 60.3 kDa against theoretical 59.3 kDa; both purified. In general terms: SEC sorts molecules by how far they enter the pores of the column.

B1: Mycobacterium tuberculosis methionyl-tRNA synthetase with a single N-terminal 6×His tag (enzyme, UniProt P9WFU5 1-519)
chain: MKPYYVTTAIAYPNAAPHVGHAYEYIATDAIARFKRLDRYDVRFLTGTDEHGLKVAQAAAAAGVPTAALARRNSDVFQRMQEALNISFDRFIRTTDADHHEASKELWRRMSAAGDIYLDNYSGWYSVRDERFFVESETQLVDGTRLTVETGTPVTWTEEQTYFFRLSAYTDKLLAHYHANPDFIAPETRRNEVISFVSGGLDDLSISRTSFDWGVQVPEHPDHVMYVWVDALTNYLTGAGFPDTDSELFRRYWPADLHMIGKDIIRFHAVYWPAFLMSAGIELPRRIFAHGFLHNRGEKMSKSVGNIVDPVALAEALGVDQVRYFLLREVPFGQDGSYSDEAIVTRINTDLANELGNLAQRSLSMVAKNLDGRVPNPGEFADADAALLATADGLLERVRGHFDAQAMHLALEAIWLMLGDANKYFSVQQPWVLRKSESEADQARFRTTLYVTCEVVRIAALLIQPVMPESAGKILDLLGQAPNQRSFAAVGVRLTPGTALPPPTGVFPRYQPPQPPEGK
On to B1, for which the binding entry is reported as “no binding”.
